Values of other authors as cited in US20110245335A1, “NEW INHIBITORS FOR TREATING DISEASES ASSOCIATED WITH AN EXCESS TRANSPORT OF HYALURONAN” (priority 2008, published 2011).
For at least one compound, name, drawing or mass did not settle the structure.

Tested on: II-1α activated bovine cartilage explants
Details: ref [14]; cited from earlier work

Row | Structure (SMILES) | infiltration of degrading enzymes | proteoglycan content and collagen degradation
1 | CN1CC(=O)N2[C@H](c3ccc4c(c3)OCO4)c3[nH]c4ccccc4c3C[C@@H]2C1=O [tadalafil] | reduced | normalized
2 | CCCc1nc(C)c2c(=O)[nH]c(-c3cc(S(=O)(=O)N4CCN(CC)CC4)ccc3OCC)nn12 [vardenafil] | reduced | normalized
